This is one part of the list.
What follows are targets tested with COc1ccc(Cn2ccc3ccc(C(=O)NO)cc32)cc1 (assay: dose-dependent thermal stabilisation call (2D-TPP, DLPTP, 10% FDR) (binary (1 = stabilised)); higher = stabilised by the compound). Conditions: system: HL-60 intact cells; concentration range 0.04-10 µM.

Chains of the proteins cited; added tags and fusions are not shown. Lines headed by an entry give the natural chain unless they say otherwise; changes in a name come on top.
UniProt Q6J4K2: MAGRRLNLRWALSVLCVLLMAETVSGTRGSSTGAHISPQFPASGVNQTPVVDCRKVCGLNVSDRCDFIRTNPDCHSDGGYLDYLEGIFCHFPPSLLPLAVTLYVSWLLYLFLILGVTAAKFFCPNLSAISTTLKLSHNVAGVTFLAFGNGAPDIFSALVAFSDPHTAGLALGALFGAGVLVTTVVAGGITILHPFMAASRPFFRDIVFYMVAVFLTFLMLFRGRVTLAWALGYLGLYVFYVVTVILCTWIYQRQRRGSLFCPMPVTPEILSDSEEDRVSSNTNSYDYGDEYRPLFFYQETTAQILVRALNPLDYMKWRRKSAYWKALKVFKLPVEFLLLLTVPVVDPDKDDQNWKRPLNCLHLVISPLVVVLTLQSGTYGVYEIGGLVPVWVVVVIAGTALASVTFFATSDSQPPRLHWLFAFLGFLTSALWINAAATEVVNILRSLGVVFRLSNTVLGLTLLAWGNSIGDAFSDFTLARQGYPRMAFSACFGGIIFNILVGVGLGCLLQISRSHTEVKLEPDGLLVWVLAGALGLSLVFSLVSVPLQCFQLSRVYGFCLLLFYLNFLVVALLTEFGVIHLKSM
UniProt Q96I15: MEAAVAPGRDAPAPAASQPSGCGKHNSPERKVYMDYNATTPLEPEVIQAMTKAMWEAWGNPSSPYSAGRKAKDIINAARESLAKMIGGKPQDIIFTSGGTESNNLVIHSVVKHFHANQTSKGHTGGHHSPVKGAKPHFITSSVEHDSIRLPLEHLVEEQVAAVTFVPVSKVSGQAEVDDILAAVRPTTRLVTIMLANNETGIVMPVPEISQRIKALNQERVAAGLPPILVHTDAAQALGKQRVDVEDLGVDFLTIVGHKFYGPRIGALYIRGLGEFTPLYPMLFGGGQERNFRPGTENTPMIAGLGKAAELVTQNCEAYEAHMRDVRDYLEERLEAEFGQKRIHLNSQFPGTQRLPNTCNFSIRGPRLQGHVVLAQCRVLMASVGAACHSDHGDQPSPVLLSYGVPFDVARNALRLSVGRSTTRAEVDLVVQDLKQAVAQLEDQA
UniProt Q9GZR1: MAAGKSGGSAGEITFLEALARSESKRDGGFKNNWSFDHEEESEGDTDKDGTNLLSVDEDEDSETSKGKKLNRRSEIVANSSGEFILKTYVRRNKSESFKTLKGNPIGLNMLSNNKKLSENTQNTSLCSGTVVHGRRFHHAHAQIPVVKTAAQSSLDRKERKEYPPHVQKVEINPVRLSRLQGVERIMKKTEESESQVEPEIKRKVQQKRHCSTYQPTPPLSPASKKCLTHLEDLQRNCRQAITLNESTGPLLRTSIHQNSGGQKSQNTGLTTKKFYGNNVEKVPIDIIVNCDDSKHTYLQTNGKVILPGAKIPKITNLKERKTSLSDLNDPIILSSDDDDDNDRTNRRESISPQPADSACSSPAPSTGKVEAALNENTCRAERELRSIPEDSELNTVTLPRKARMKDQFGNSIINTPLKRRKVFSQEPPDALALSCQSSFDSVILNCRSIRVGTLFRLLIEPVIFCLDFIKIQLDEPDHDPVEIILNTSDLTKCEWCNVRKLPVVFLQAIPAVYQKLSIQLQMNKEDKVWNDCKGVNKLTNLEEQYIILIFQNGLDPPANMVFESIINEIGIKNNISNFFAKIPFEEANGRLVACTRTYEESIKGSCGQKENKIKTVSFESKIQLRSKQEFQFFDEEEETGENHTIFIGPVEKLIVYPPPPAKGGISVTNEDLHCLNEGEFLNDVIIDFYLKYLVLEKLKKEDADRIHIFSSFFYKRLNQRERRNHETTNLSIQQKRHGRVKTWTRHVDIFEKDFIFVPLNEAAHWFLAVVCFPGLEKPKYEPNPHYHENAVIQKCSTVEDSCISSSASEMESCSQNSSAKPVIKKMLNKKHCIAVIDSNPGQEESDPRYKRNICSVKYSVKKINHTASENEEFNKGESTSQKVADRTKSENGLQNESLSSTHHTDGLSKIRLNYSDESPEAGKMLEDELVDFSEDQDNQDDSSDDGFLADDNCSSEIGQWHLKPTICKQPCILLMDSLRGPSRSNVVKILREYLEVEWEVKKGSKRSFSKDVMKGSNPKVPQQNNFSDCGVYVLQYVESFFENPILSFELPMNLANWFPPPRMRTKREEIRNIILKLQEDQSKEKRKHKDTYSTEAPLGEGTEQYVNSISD
UniProt Q9H299: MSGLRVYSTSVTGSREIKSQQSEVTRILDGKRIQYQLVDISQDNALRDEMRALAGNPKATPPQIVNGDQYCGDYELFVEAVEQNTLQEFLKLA
UniProt Q9C0C4, whole entry: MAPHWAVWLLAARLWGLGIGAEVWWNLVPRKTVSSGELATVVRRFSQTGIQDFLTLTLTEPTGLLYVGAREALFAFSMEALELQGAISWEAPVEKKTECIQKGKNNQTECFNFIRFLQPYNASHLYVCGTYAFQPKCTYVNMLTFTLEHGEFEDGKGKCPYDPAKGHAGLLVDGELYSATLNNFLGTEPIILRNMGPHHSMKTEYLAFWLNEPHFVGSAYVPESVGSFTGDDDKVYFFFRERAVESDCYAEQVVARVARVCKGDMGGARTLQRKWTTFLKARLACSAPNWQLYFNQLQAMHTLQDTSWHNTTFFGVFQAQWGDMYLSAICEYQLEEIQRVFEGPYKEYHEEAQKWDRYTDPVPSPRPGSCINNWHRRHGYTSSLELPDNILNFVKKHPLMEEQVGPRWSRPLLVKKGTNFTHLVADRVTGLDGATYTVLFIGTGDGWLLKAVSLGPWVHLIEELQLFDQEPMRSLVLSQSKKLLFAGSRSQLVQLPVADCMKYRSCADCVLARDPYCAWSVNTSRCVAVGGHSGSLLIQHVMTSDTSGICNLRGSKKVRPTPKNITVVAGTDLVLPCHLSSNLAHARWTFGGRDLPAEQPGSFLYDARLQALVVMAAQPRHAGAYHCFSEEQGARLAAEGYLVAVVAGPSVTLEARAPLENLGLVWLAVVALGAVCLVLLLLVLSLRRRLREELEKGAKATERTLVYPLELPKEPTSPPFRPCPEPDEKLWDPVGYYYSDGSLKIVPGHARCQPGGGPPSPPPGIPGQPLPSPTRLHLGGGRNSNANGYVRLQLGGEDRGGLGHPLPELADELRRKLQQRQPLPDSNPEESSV
UniProt Q9Y6B6: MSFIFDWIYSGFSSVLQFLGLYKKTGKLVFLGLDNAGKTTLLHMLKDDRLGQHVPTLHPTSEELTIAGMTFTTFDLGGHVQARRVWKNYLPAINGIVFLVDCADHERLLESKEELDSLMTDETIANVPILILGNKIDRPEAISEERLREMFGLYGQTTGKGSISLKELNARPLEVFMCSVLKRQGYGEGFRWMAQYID
UniProt Q96FV2: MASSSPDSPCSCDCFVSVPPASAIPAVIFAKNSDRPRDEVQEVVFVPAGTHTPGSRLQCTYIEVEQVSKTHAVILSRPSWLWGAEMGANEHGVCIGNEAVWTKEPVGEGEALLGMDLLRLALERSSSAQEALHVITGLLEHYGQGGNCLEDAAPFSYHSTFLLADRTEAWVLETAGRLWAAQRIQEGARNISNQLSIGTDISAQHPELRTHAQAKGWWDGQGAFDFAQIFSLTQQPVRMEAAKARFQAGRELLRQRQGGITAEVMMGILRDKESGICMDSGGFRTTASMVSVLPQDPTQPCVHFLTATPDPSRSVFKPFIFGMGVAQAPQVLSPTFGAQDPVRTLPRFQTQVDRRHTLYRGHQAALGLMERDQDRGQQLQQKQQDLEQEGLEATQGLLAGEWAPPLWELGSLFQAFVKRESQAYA
UniProt Q6P3W7: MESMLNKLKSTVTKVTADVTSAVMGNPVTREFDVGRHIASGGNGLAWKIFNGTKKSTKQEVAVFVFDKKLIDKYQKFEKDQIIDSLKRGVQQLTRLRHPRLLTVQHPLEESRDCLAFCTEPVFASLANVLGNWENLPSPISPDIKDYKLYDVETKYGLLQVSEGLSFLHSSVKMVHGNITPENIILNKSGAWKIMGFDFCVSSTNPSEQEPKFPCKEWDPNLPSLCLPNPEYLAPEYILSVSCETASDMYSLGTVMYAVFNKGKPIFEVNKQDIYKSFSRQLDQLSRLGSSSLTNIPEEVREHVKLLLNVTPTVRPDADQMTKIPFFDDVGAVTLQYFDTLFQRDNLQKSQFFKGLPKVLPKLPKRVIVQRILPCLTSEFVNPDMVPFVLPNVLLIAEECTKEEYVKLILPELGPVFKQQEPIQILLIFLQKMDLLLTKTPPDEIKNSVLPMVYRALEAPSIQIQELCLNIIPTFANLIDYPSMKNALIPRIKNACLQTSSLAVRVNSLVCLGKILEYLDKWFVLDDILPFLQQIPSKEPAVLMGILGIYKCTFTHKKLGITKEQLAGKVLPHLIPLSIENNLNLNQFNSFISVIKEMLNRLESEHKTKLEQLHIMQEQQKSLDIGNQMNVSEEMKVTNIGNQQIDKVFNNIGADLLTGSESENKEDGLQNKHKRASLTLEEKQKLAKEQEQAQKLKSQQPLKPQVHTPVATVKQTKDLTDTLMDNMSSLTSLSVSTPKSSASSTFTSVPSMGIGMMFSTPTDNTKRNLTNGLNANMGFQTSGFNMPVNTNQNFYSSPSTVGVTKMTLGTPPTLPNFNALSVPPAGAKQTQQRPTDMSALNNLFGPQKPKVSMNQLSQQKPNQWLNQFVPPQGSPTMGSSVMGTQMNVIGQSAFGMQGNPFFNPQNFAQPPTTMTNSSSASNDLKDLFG
UniProt P05120, whole entry: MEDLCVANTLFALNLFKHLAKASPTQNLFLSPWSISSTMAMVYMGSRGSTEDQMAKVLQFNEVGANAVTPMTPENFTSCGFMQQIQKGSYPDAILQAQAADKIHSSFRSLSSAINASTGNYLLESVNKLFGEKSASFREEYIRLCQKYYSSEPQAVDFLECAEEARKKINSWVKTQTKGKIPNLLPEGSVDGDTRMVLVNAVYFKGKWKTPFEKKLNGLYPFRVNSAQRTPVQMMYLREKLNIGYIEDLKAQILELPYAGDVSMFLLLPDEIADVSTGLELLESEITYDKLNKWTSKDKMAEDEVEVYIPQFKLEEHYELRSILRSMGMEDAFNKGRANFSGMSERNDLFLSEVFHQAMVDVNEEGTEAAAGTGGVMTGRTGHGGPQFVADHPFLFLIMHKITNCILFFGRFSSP
UniProt O95486: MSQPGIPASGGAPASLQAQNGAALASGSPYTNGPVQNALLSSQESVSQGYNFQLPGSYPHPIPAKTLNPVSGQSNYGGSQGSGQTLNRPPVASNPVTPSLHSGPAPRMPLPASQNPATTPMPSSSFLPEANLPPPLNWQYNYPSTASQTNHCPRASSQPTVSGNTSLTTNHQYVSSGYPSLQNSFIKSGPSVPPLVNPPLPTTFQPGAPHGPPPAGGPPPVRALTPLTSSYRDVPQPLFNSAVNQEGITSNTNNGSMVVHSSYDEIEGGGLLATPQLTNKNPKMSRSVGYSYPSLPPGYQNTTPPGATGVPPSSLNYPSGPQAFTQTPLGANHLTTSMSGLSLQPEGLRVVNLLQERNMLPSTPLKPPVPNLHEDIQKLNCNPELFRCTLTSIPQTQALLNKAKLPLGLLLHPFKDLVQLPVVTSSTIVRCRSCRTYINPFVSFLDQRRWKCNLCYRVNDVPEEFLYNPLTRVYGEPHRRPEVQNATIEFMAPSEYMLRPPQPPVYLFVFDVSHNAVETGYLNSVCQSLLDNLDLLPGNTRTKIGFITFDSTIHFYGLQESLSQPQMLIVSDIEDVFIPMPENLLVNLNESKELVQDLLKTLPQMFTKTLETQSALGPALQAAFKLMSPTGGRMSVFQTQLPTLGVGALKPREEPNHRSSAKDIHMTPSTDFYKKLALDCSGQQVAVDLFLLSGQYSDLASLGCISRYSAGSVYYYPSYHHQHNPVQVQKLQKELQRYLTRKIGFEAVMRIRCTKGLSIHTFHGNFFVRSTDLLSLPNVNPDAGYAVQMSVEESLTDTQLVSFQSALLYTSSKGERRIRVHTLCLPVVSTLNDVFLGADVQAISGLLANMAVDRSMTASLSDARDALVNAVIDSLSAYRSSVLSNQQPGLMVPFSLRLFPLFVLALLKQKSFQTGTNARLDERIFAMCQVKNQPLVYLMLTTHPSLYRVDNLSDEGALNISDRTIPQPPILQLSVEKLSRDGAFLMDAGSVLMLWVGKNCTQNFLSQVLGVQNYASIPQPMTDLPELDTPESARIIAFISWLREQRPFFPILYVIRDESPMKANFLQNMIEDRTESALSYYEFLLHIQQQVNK
UniProt Q15427: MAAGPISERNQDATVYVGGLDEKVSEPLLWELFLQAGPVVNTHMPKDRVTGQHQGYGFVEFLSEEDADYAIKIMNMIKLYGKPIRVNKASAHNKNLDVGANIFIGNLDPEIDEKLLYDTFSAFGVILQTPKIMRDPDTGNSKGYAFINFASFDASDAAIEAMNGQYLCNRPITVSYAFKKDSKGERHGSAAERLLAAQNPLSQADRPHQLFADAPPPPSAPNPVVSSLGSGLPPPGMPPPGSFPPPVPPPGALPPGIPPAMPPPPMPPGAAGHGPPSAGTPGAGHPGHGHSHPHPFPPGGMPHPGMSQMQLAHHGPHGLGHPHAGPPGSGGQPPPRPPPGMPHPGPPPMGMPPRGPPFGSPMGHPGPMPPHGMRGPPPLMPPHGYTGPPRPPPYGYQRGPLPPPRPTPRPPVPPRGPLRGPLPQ

Target	dose-dependent thermal stabilisation call
SASS6 (UniProt Q6UVJ0)	inactive: 0
SLC24A6 (UniProt Q6J4K2)	inactive: 0
SLC30A9 (UniProt Q6PML9)	inactive: 0
SCLY (UniProt Q96I15)	inactive: 0
SLC38A5 (UniProt Q8WUX1)	inactive: 0
SGK196 (UniProt Q9H5K3)	inactive: 0
SEC16A (UniProt O15027)	inactive: 0
SENP6 (UniProt Q9GZR1)	inactive: 0
SELI (UniProt Q9C0D9)	inactive: 0
SCAF1 (UniProt Q9H7N4)	inactive: 0
SBDS (UniProt Q9Y3A5)	inactive: 0
SH3BGRL3 (UniProt Q9H299)	inactive: 0
SEMA4C (UniProt Q9C0C4)	inactive: 0
SCYL1BP1 (UniProt Q5T7V8)	inactive: 0
SLC27A1 (UniProt Q6PCB7)	inactive: 0
SEC61A1 (UniProt P61619)	inactive: 0
SCAMP4 (UniProt Q969E2)	inactive: 0
SHQ1 (UniProt Q6PI26)	inactive: 0
SLC25A15 (UniProt Q9Y619)	inactive: 0

Target	dose-dependent thermal stabilisation call
SBNO1 (UniProt A3KN83)	inactive: 0
SAR1B (UniProt Q9Y6B6)	inactive: 0
SATB2 (UniProt Q9UPW6)	inactive: 0
SECISBP2 (UniProt Q96T21)	inactive: 0
SLC5A3 (UniProt P53794)	inactive: 0
SCRN2 (UniProt Q96FV2)	inactive: 0
SERINC3 (UniProt Q13530)	inactive: 0
SCYL2 (UniProt Q6P3W7)	inactive: 0
SH3BP5L (UniProt Q7L8J4)	inactive: 0
SLC39A11 (UniProt Q8N1S5)	inactive: 0
SCD5 (UniProt Q86SK9)	inactive: 0
SERPINB2 (UniProt P05120)	inactive: 0
SCD (UniProt O00767)	inactive: 0
SEC24A (UniProt O95486)	inactive: 0
SLC12A2 (UniProt P55011)	inactive: 0
SLC39A1 (UniProt Q9NY26)	inactive: 0
SF3B4 (UniProt Q15427)	inactive: 0
SCO2 (UniProt O43819)	inactive: 0

A stretch from the list above, as a working copy:
Target	dose-dependent thermal stabilisation call
SCRN2 (UniProt Q96FV2)	inactive: 0
SERINC3 (UniProt Q13530)	inactive: 0

Reference: the supplement of paper PMC7666118
